Reference: patent US8629240B2, “Peptide ligands for clusterin and uses thereof” (National Research Council of Canada, priority 2009, dated 2014)
“Also recorded” adds a separate entry of the source. Not every detail of the peptide structures is certain; ends, links or a residue may be inferred. Peptide text beside a SMILES is read from it.

Sequences of proteins named here, by UniProt entry; tags and fusion partners are left off. Residues count along the entry.
UniProt P10909, 23-227 limits assumed: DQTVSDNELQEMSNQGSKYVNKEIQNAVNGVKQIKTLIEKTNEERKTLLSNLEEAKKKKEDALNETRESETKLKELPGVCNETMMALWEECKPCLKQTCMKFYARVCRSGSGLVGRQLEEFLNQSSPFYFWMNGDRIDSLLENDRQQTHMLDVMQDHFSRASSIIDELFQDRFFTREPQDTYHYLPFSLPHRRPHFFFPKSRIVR
UniProt P10909, 228-449 limits assumed: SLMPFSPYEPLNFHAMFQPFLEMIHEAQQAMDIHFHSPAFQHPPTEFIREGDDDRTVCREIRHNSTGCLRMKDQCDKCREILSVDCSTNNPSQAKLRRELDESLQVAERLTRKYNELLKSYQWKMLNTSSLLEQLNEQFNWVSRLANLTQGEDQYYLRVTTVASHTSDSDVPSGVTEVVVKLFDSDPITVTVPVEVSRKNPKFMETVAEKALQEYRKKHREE

Columns and labels:
[1] = biological target: T1, rhCLU (recombinant human clusterin) (Homo sapiens, UniProt P10909); experiment: SPR biosensor analysis, rhCLU flowed over immobilized peptide; assay type: binding; settings: randomized sequence control peptides
T1 construct: made in house; host or cells: HEK-293 cells
Source text: Peptides were immobilized on research-grade CM5 sensor chips by a maleimide coupling method. CM5 sensor chips (research grade) and EDC were purchased from Biosensor AB (Uppsala, Sweden). This thiol coupling generates a stable thioether bond between reactive maleimide groups on the sensor chip surface and the thiol groups of the peptides. A heterobifunctional reagent, SMCC-hydrazide (4-[N-maleimidomethyl]cyclohexane-1 carboxylhydrazide; 99.5% pure; purchased from Molecular Biosciences Inc. (Boulder, Colo.)), was used to introduce reactive maleimido groups to the sensor surface. Immobilization was performed at 25° C. at a flow rate of 5 μL/min. A continuous flow of the HBS-EP buffer (20 mM HEPES, 150 mM NaCl, 3.4 mM EDTA and 0.05% Tween™-20 at pH 7.4) was maintained over the sensor surface. The carboxylated dextran matrix on the sensor surface was activated by an injection of 50 μL of a freshly mixed solution containing 172 μL of 1.2 mM […] (EDC) in 100 mM MES buffer at pH 5.00, and 28 μL of 17.8 mM SMCC-hydrazide in 40% DMF. The ratio of the SMCC:EDC was 2.5:1. Peptide-coupled surfaces were generated by injecting peptides (30-100 μg/ml) in 100 mM MES buffer (at pH 5.0). […]
Protein-peptide interactions were followed using a BIAcore 3000 instrument (Biosensor AB, Uppsala, Sweden). […] Dissociation was monitored for up to 300 s post-injection. […]

## CC(C)C[C@H](NC(=O)[C@H](Cc1ccc(O)cc1)NC(=O)[C@@H]1CCCN1)C(=O)N[C@@H](Cc1c[nH]cn1)C(=O)N[C@@H](CCC(N)=O)C(=O)N[C@@H](CO)C(=O)N1CCC[C@H]1C(=O)N[C@@H](Cc1c[nH]cn1)C(=O)N[C@@H](Cc1c[nH]c2ccccc12)C(=O)N[C@@H](CCCCN)C(=O)N1CCC[C@H]1C(=O)N[C@@H](CO)C(=O)N[C@@H](CO)C(=O)NCC(=O)N[C@@H](CO)C(=O)NCC(=O)N[C@@H](CS)C(=O)O [P3378R, PYLHQSPHWKPSSGSGC, reference compound] (H-PYLHQSPHWKPSSGSGC-OH)
4T1 tumor; co-injection of P3378-Dylight680 and P3378R-Dylight800, 25 nanomoles each i.v.
  AUT/AUN ratio as a function of time: behaviour after the initial accumulation: cleared from the tumor
4T1 tumor; co-injection, AUT/AUN ratio
  time post-injection up to which both peptides accumulate at the tumor site at the same rate: ~60 min
[1]
  binding of rhCLU to immobilized randomized peptide (Scatchard plot): does not bind to rhCLU specifically; also recorded: linear nature of the Scatchard plot
